In patent publication US20080166749A1, “Fluorescent Protein Sensors of Post-Translational Modifications” (INVITROGEN CORPORATION, priority 1998, published 2008):

Assay: Relative fluorescence of purified GFP phosphorylation mutants before phosphorylation
Settings: not given

Substance	fluorescence relative to the wild type protein
1MSKRRDSL: GFP with N-terminal phosphorylation site MSKRRDSL; 7% of wild type fluorescence (phosphorylation site inserted at the N-terminus)	7%

Same assay, conditions: more drastically altered N-terminal phosphorylation sites, before phosphorylation

Substance	Relative fluorescence as a % of GFP mutant S65T
1IMRRRRSI1: S65T GFP with N-terminal phosphorylation site MRRRRSII (phosphorylation site inserted at the N-terminus)	5.1%
−2MRRRRSIIIF: S65T GFP with N-terminal phosphorylation site MRRRRSIIIF, N-terminus extended by two (phosphorylation site inserted at the N-terminus)	0.7%
−3MRRRRSIIIIF: S65T GFP with N-terminal phosphorylation site MRRRRSIIIIF, N-terminus extended by three (phosphorylation site inserted at the N-terminus)	0.6%

Same assay, conditions: phosphorylation sites at the N-terminus, engineered into S65T GFP

Substance	Relative fluorescence as a % of wild type
1MRKGSLLF: S65T GFP with N-terminal phosphorylation site MRKGSLLF (phosphorylation site inserted at the N-terminus)	52%
1MSKRRDSL: GFP with N-terminal phosphorylation site MSKRRDSL; 7% of wild type fluorescence (phosphorylation site inserted at the N-terminus)	7%
1MRRESLLF: S65T GFP with N-terminal phosphorylation site MRRESLLF (phosphorylation site inserted at the N-terminus)	30%
1MSRRDSCF: S65T GFP with N-terminal phosphorylation site MSRRDSCF (phosphorylation site inserted at the N-terminus)	43%
1MRKGSCLF: S65T GFP with N-terminal phosphorylation site MRKGSCLF (phosphorylation site inserted at the N-terminus)	40%
1MRDSCLF: S65T GFP with N-terminal phosphorylation site MRDSCLF (phosphorylation site inserted at the N-terminus)	27%
